# About 1,700 (0.47%) of roughly 360,000 compounds were called active. Inconclusive results, whose numbers are uncertain, are shown with a selection of clear calls. The call rests on the fitted dose curve; in most records, active means well fitted inhibition curve with a large enough effect; inconclusive means small, poorly fitted or top-dose-only effect; inactive means no such curve, though single readings can be large or run the other way. Potencies of inconclusive entries are doubtful fits and often do not repeat.
# Amino acid sequences for entries named in this document (tags omitted).
# UniProt Q14191, whole entry, looked up: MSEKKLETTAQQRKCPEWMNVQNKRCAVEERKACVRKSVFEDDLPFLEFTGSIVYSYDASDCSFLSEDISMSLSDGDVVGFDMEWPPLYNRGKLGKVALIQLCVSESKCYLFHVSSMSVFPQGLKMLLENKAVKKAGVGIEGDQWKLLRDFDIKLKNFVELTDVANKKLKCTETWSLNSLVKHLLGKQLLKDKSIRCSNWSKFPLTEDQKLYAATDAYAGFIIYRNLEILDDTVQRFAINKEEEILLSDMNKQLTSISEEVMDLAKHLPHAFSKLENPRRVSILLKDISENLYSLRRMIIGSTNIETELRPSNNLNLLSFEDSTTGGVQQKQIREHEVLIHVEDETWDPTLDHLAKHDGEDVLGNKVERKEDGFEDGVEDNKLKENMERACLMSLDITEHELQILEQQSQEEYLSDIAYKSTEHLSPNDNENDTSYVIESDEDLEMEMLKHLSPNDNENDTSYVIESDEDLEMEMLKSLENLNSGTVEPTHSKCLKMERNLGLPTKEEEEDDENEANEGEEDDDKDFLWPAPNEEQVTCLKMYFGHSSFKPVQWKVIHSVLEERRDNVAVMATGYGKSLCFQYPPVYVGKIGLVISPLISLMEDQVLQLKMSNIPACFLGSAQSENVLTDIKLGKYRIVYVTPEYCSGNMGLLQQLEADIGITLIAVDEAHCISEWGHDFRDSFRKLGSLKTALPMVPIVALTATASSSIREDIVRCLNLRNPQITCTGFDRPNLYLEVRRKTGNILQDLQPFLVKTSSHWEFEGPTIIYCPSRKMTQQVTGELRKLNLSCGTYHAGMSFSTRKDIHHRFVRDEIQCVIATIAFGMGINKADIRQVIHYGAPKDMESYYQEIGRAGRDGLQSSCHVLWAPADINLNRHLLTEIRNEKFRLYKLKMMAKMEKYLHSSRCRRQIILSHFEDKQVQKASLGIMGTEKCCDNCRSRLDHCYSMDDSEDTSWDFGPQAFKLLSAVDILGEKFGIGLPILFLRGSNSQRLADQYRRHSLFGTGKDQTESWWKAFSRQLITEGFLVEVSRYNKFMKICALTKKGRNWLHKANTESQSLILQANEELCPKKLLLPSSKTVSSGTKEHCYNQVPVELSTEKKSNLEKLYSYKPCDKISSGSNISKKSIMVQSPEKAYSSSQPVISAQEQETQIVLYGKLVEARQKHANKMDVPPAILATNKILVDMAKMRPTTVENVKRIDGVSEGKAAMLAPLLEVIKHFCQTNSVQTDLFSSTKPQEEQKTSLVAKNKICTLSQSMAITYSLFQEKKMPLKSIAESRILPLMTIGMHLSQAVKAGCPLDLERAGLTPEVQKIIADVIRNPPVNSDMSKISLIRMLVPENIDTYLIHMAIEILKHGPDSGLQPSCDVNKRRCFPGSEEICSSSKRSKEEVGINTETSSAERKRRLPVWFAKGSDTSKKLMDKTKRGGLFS
# Molecular target: Bifunctional 3'-5' exonuclease/ATP-dependent helicase WRN (Homo sapiens) (UniProt Q14191)
# Experiment: qHTS for Inhibitors of WRN Helicase; further: nearly all actives have a fitted effect of over 55% in size
# Settings: WRN helicase unwinding, fluorescent forked duplex, kinetic; series mostly up to 114 µM
# Outline: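 Enzyme (20 nM final) and test compound sit together 15 min at room temperature before substrate addition. Substrate is a single-forked duplex oligonucleotide (100 nM) labelled with fluorophore and quencher, with 2 mM ATP; helicase unwinding raises red fluorescence, read kinetically.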
# Potency means the concentration at half of the fitted maximal effect.
row,SMILES,Potency
1,CCN1/C(=C/c2ccc3cc(C)ccc3[n+]2C)Sc2ccc3sccc3c21,active: 89.1 µM
2,Cc1nc(-n2nnc(CO)c2CO)nc2c1CCC2,"inconclusive: 89.1 µM [inhibitor, single point]"
3,C=C(C)C(=O)Nc1ccc(OC(F)(F)C(F)F)c(NC(=O)C(=C)C)c1,"inconclusive: 56.2 µM [inhibitor, partial curve]"
4,CC(=O)c1sc(NC(=O)c2ccc(Cn3cc(Br)cn3)o2)nc1C,"inconclusive: 79.4 µM [inhibitor, single point]"
5,Cc1cc(C)c(O)c(CN(C)Cc2cc(Cl)cc(Cl)c2O)c1,inactive
6,CCc1ccc(S(=O)(=O)ON2C(=O)c3ccccc3C2=O)cc1,"inconclusive: 44.7 µM [inhibitor, partial curve]"
7,NNc1nc2c(Cl)ccc(Cl)c2s1,"inconclusive: 10 µM [inhibitor, partial curve]"
8,CN1CC=C2C(C#N)=C(N)C(C#N)(C#N)[C@H](c3cccs3)[C@H]2C1,"inconclusive: 44.7 µM [inhibitor, partial curve, poor fit]"
9,CC1=CCC[C@@H]2[C@@](C)(CC/C(C)=C/C(=O)O)[C@H](C)CC[C@@]12C,"inconclusive: 63.1 µM [inhibitor, single point]"
10,CCOc1cc(OCC)cc(C(=O)Nc2cccc(C(C)=O)c2)c1,"inconclusive: 10 µM [inhibitor, partial curve]"
11,CCN(CC)c1ccc(N=C2C=CC(=O)C=C2NC(C)=O)cc1,active: 17.8 µM
12,Cc1onc(-c2c(F)cccc2Cl)c1C(=O)OCC(=O)Nc1cccc(S(=O)(=O)N(C)C)c1,"inconclusive: 28.2 µM [inhibitor, single point]"
13,CCc1cc(=O)n2c([nH]c3ccccc32)c1C#N,inactive
14,O=C(COC(=O)CCSc1ccccc1Cl)Nc1ccc(F)cc1F,"inconclusive: 22.4 µM [inhibitor, single point]"
15,Cc1cc(=O)oc2c(C)c(OC(=O)c3ccco3)ccc12,"inconclusive: 44.7 µM [inhibitor, partial curve]"
16,CCNc1ccc2noc3c2c1C(=O)c1ccccc1-3,active: 4.23 µM
17,CCOC(=O)CSc1nc(N)c(C#N)c(-c2ccc(OC)cc2)c1C#N,inactive
18,CCOC(=O)C1=C(C)N=c2sc(=Cc3ccc(OCC(=O)O)cc3)c(=O)n2C1c1ccc(Cl)cc1 (centres undefined),"inconclusive: 35.5 µM [inhibitor, partial curve]"
19,O=C(Nc1nnc(-c2ccccn2)o1)c1cccc(Br)c1,"inconclusive: 22.4 µM [inhibitor, single point]"

# Source: PubChem BioAssay AID651768 (National Center for Advancing Translational Sciences (NCATS), 2012)
